Values are relative to the signal before dosing, not to a vehicle control; the signal also falls without drug.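 The cancer cells are triple-negative breast cancer lines of basal-like or mesenchymal-like type, grown without fibroblasts. A drop in red signal reflects loss of mitochondrial integrity, a stand-in for apoptotic death.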
What was measured:
HCC1143 = assay: relative JC-1 red fluorescence (viability) vs pre-drug, monoculture (fraction); higher = more viable cancer cells; settings: coculture fibroblast: none (monoculture)
Experimental: (§1)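 JC-1 labelled TNBC cells grown in monoculture (density kept equal with unlabelled cancer cells) in 384-well plates in FluoroBrite medium, treated with one of 42 anticancer drugs at 0.1, 1, 10 or 100 uM. JC-1 red fluorescence (mitochondrial integrity, surrogate of apoptotic death) was read by plate reader every 8 h for 72 h. Values are normalised to each well's pre-drug value, with background from alamethicin. The stock of one drug was tenfold lower, so its dose labels may be too high. Monoculture values are repeated alongside each fibroblast plate and are averaged here.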

Hs578T = assay: as above; settings: coculture fibroblast: none (monoculture)
Experimental: as §1

CC(C)(C#N)c1cc(Cn2cncn2)cc(C(C)(C)C#N)c1 [Anastrozole]
relative JC-1 red fluorescence
Settings | 8 h | 16 h | 24 h | 32 h | 40 h | 48 h | 56 h | 64 h | 72 h
HCC1143, 0.1 µM | 0.8869 | 0.774 | 0.716 | 0.659 | 0.62 | 0.6 | 0.573 | 0.567 | 0.559
HCC1143, 1 µM | 0.8567 | 0.7703 | 0.7 | 0.661 | 0.622 | 0.6 | 0.567 | 0.54 | 0.512
HCC1143, 10 µM | 0.905 | 0.828 | 0.752 | 0.687 | 0.637 | 0.5964 | 0.5675 | 0.54622 | 0.5249
HCC1143, 100 µM | 0.9189 | 0.8633 | 0.8084 | 0.76 | 0.7165 | 0.678 | 0.652 | 0.633 | 0.619
Hs578T, 0.1 µM | 0.837 | 0.726 | 0.658 | 0.606 | 0.564 | 0.551 | 0.524 | 0.512 | 0.507
Hs578T, 1 µM | 0.8441 | 0.743 | 0.658 | 0.585 | 0.534 | 0.514 | 0.487 | 0.482 | 0.477
Hs578T, 10 µM | 0.842 | 0.743 | 0.656 | 0.586 | 0.52 | 0.475 | 0.441 | 0.42 | 0.4062
Hs578T, 100 µM | 0.881 | 0.8 | 0.784 | 0.734 | 0.714 | 0.711 | 0.687 | 0.706 | 0.697

CC(C)C[C@H](NC(=O)[C@@H](COC(C)(C)C)NC(=O)[C@H](Cc1ccc(O)cc1)NC(=O)[C@H](CO)NC(=O)[C@H](Cc1c[nH]c2ccccc12)NC(=O)[C@H](Cc1cnc[nH]1)NC(=O)[C@@H]1CCC(=O)N1)C(=O)N[C@@H](CCCNC(=N)N)C(=O)N1CCC[C@H]1C(=O)NNC(N)=O [Goserelin]
relative JC-1 red fluorescence
Settings | 8 h | 16 h | 24 h | 32 h | 40 h | 48 h | 56 h | 64 h | 72 h
HCC1143, 0.1 µM | 0.8861 | 0.773 | 0.72 | 0.678 | 0.638 | 0.6059 | 0.58189 | 0.5634 | 0.559
HCC1143, 1 µM | 0.883 | 0.819 | 0.759 | 0.702 | 0.653 | 0.613 | 0.589 | 0.5737 | 0.56
HCC1143, 10 µM | 0.8823 | 0.8 | 0.737 | 0.69 | 0.644 | 0.616 | 0.586 | 0.581 | 0.567
HCC1143, 100 µM | 0.945 | 0.902 | 0.885 | 0.864 | 0.844 | 0.821 | 0.799 | 0.787 | 0.773
Hs578T, 0.1 µM | 0.853 | 0.7115 | 0.697 | 0.634 | 0.592 | 0.5687 | 0.545 | 0.54 | 0.525
Hs578T, 1 µM | 0.845 | 0.735 | 0.705 | 0.642 | 0.609 | 0.601 | 0.586 | 0.587 | 0.59
Hs578T, 10 µM | 0.861 | 0.749 | 0.698 | 0.643 | 0.603 | 0.584 | 0.561 | 0.559 | 0.551
Hs578T, 100 µM | 0.901 | 0.794 | 0.809 | 0.726 | 0.697 | 0.689 | 0.674 | 0.68 | 0.664

O=NN(CCCl)C(=O)NC1CCCCC1 [Lomustine]
relative JC-1 red fluorescence
Settings | 8 h | 16 h | 24 h | 32 h | 40 h | 48 h | 56 h | 64 h | 72 h
HCC1143, 0.1 µM | 0.869 | 0.778 | 0.722 | 0.681 | 0.647 | 0.621 | 0.607 | 0.606 | 0.598
HCC1143, 1 µM | 0.885 | 0.792 | 0.7246 | 0.6746 | 0.6326 | 0.601 | 0.568 | 0.547 | 0.536
HCC1143, 10 µM | 0.859 | 0.779 | 0.737 | 0.681 | 0.65 | 0.63 | 0.623 | 0.614 | 0.614
HCC1143, 100 µM | 0.808 | 0.723 | 0.674 | 0.627 | 0.599 | 0.586 | 0.568 | 0.569 | 0.567
Hs578T, 0.1 µM | 0.83395 | 0.684 | 0.661 | 0.584 | 0.547 | 0.526 | 0.501 | 0.49 | 0.483
Hs578T, 1 µM | 0.8474 | 0.738 | 0.664 | 0.599 | 0.546 | 0.517 | 0.488 | 0.482 | 0.471
Hs578T, 10 µM | 0.823 | 0.666 | 0.637 | 0.565 | 0.526 | 0.499 | 0.483 | 0.474 | 0.475
Hs578T, 100 µM | 0.712 | 0.605 | 0.592 | 0.529 | 0.489 | 0.472 | 0.455 | 0.457 | 0.452

O=C1c2c(O)ccc(O)c2C(=O)c2c(NCCNCCO)ccc(NCCNCCO)c21 [Mitoxantrone]
relative JC-1 red fluorescence
Settings | 8 h | 16 h | 24 h | 32 h | 40 h | 48 h | 56 h | 64 h | 72 h
HCC1143, 0.1 µM | 0.8277 | 0.762 | 0.719 | 0.684 | 0.659 | 0.631 | 0.613 | 0.608 | 0.589
HCC1143, 1 µM | 0.594 | 0.469 | 0.479 | 0.474 | 0.471 | 0.471 | 0.471 | 0.481 | 0.471
HCC1143, 10 µM | 0.448 | 0.472 | 0.706 | 0.868 | 0.808 | 0.713 | 0.6 | 0.496 | 0.409
Hs578T, 0.1 µM | 0.7406 | 0.6651 | 0.611 | 0.585 | 0.566 | 0.543 | 0.534 | 0.54 | 0.532
Hs578T, 1 µM | 0.439 | 0.3479 | 0.408 | 0.351 | 0.343 | 0.339 | 0.323 | 0.327 | 0.319
Hs578T, 10 µM | 0.5554 | 0.554 | 0.576 | 0.411 | 0.304 | 0.236 | 0.174 | 0.122 | 0.0739

CO[C@H]1C[C@@H]2CC[C@@H](C)[C@@](O)(O2)C(=O)C(=O)N2CCCC[C@H]2C(=O)O[C@H]([C@H](C)C[C@@H]2CC[C@@H](O)[C@H](OC)C2)CC(=O)[C@H](C)/C=C(\C)[C@@H](O)[C@@H](OC)C(=O)[C@H](C)C[C@H](C)/C=C/C=C/C=C/1C [Rapamycin]
relative JC-1 red fluorescence
Settings | 8 h | 16 h | 24 h | 32 h | 40 h | 48 h | 56 h | 64 h | 72 h
HCC1143, 0.1 µM | 0.8966 | 0.809 | 0.7347 | 0.68487 | 0.63 | 0.6048 | 0.579 | 0.572 | 0.56
HCC1143, 1 µM | 0.8888 | 0.8209 | 0.74 | 0.679 | 0.616 | 0.578 | 0.551 | 0.525 | 0.517
HCC1143, 10 µM | 0.781 | 0.795 | 0.79 | 0.77 | 0.741 | 0.725 | 0.719 | 0.714 | 0.698
HCC1143, 100 µM | 0.797 | 0.672 | 0.563 | 0.478 | 0.411 | 0.357 | 0.26 | 0.184 | 0.21
Hs578T, 0.1 µM | 0.8674 | 0.769 | 0.724 | 0.656 | 0.62 | 0.612 | 0.579 | 0.59 | 0.583
Hs578T, 1 µM | 0.826 | 0.744 | 0.7225 | 0.655 | 0.605 | 0.5893 | 0.5689 | 0.5694 | 0.563
Hs578T, 10 µM | 0.856 | 0.885 | 0.859 | 0.84 | 0.795 | 0.782 | 0.754 | 0.738 | 0.733
Hs578T, 100 µM | 0.885 | 0.848 | 0.805 | 0.857 | 0.893 | 0.828 | 0.6904 | 0.483 | 0.385

From the supplement of paper PMC6078165
